Data on five molecules can be found in US20140030218A1, “Treatment And Screening” (IMPERIAL INNOVATIONS LIMITED, published 2014).

The chains behind the UniProt entries cited, without tags or fusion partners. Where a name states a change or a piece, a line headed by the entry shows the natural chain unless it says otherwise.
UniProt Q04206: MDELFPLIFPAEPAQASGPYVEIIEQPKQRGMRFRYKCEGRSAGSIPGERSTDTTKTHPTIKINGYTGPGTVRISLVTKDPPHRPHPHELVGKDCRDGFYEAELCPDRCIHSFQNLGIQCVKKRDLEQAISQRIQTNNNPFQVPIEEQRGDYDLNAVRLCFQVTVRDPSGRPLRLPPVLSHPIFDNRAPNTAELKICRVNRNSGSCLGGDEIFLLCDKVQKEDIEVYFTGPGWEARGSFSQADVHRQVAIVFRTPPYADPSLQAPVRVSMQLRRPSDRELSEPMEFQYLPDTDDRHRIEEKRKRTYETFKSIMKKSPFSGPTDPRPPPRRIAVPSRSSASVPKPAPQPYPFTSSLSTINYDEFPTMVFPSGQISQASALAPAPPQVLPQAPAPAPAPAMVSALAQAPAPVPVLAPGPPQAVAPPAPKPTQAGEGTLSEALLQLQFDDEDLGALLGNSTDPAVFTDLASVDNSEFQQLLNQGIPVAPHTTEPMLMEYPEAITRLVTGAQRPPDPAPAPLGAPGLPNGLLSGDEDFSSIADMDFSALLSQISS

Results are given in words; binding and its absence hold for the method and conditions named. For part of these data: Binding seen in cells or lysates may run through a third protein. Some results given as binding are weak or reduced against the parent protein; the word gives no strength.

Assay [1] has as its target endogenous NF-kB RelA (human) (UniProt Q04206). Briefly: immunoprecipitation with anti-IRF5 antibodies from DNase I-digested nuclei of HEK-293-TLR4-CD14/Md2 cells (LPS 0, 1, 4, 8 h), immunoblot for RelA. (A western blot detects proteins with antibodies after separation by electrophoresis.)
Assay [2] shares this target. Kind of assay: immunoprecipitation of endogenous IRF5 from MDDCs (LPS 0 or 1 h) with anti-IRF5 antibodies, immunoblot for RelA.
Another assay addresses endogenous IRF5 (human) (UniProt Q13568). Briefly: anti-FLAG sepharose immunoprecipitation from HEK-293 cells without cross-linking, immunoblot.
Assay [3] has as its target One-Strep-IRF5 fusion protein (human) (UniProt Q13568). Kind of assay: One-Strep affinity purification of full-length IRF5 with flag-tagged RelA truncated mutants, Western blot (legend of FIG. 33).
Assay [4] concerns the target endogenous NF-kB RelA (human) (UniProt Q04206). Kind of assay: Strep-Tactin pull-down from formaldehyde-cross-linked HEK-293 cells, immunoblot.
For assay [5] the target is unchanged. Kind of assay: pull-down and co-immunoprecipitation, immunoblot (title of the legend of FIG. 24).
Assay [6] has the same target. Briefly: summary of the pull-down and co-immunoprecipitation experiments.
Assay [7] addresses T1, TRIM28 (human) (UniProt Q13263).
T1 sequence: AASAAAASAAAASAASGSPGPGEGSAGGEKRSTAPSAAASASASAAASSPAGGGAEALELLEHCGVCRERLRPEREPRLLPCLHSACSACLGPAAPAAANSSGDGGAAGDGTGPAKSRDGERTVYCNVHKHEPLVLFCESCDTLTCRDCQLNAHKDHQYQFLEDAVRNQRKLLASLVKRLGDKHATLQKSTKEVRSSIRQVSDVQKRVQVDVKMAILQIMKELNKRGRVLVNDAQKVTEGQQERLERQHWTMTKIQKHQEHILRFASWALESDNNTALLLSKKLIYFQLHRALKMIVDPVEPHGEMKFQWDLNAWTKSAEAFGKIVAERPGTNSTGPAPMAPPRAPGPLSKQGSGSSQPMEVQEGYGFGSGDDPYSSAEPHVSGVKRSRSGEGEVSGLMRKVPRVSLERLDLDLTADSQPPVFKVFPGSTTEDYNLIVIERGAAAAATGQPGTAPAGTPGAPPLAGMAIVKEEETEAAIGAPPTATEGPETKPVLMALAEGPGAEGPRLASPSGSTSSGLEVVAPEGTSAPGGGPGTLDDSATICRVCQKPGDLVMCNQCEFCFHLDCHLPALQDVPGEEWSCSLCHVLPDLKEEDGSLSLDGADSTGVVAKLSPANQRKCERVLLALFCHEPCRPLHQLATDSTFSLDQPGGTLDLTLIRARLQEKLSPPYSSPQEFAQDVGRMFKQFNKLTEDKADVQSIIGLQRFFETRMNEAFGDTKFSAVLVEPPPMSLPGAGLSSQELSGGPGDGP
Kind of assay: One-Strep affinity purification, Western blot (legend of FIG. 36).

Assay [8] deals with T1, TRIM28 (human). Briefly: One-Strep affinity purification without cross-linking, Western blot with a TRIM28 specific antibody.

As to “endogenous IRF5 (from UniProt Q13568 1-488)”, the binding entry in assay [1] and in [2] was “binds” in each case.

For “human RelA containing C-terminal FLAG tag (from UniProt Q04206 1-551)”, the binding entry with endogenous IRF5 (human) is “binds”.

“Rel A dimerisation domain (from UniProt Q04206 189-295)”: the binding result in assay [3] is “binds”.

B1: human IRF5 tagged with one-strep tag (N-terminus) and HA tag (C-terminus) (other)
chain: MNQSIPVAPTPPRRVRLKPWLVAQVNSCQYPGLQWVNGEKKLFCIPWRHATRHGPSQDGDNTIFKAWAKETGKYTEGVDEADPAKWKANLRCALNKSRDFRLIYDGPRDMPPQPYKIYEVCSNGPAPTDSQPPEDYSFGAGEEEEEEEELQRMLPSLSLTEDVKWPPTLQPPTLQPPVVLGPPAPDPSPLAPPPGNPAGFRELLSEVLEPGPLPASLPPAGEQLLPDLLISPHMLPLTDLEIKFQYRGRPPRALTISNPHGCRLFYSQLEATQEQVELFGPISLEQVRFPSPEDIPSDKQRFYTNQLLDVLDRGLILQLQGQDLYAIRLCQCKVFWSGPCASAHDSCPNPIQREVKTKLFSLEHFLNELILFQKGQTNTPPPFEIFFCFGEEWPDRKPREKKLITVQVVPVAARLLLEMFSGELSWSADSIRLQISNPDLKDRMVEQFKELHHIWQSQQRLQPVAQAPPGAGLGVGQGPWPMHPAGMQ
notes: Expressed in HEK-293-TLR4-CD14/Md2 cells and purified on Strep-Tactin after formaldehyde cross-linking; also called onestrep-IRF5-HA; IRF5 with an N-terminal one-strep tag and a C-terminal HA tag; not shown: N-terminal one-strep tag; C-terminal HA tag
Consider B1, for which the binding entry in assay [4], in assay [5] and in assay [6] was “binds” in each case.

B2: One-Strep-IRF5 fusion protein (other)
chain: MNQSIPVAPTPPRRVRLKPWLVAQVNSCQYPGLQWVNGEKKLFCIPWRHATRHGPSQDGDNTIFKAWAKETGKYTEGVDEADPAKWKANLRCALNKSRDFRLIYDGPRDMPPQPYKIYEVCSNGPAPTDSQPPEDYSFGAGEEEEEEEELQRMLPSLSLTEDVKWPPTLQPPTLQPPVVLGPPAPDPSPLAPPPGNPAGFRELLSEVLEPGPLPASLPPAGEQLLPDLLISPHMLPLTDLEIKFQYRGRPPRALTISNPHGCRLFYSQLEATQEQVELFGPISLEQVRFPSPEDIPSDKQRFYTNQLLDVLDRGLILQLQGQDLYAIRLCQCKVFWSGPCASAHDSCPNPIQREVKTKLFSLEHFLNELILFQKGQTNTPPPFEIFFCFGEEWPDRKPREKKLITVQVVPVAARLLLEMFSGELSWSADSIRLQISNPDLKDRMVEQFKELHHIWQSQQRLQPVAQAPPGAGLGVGQGPWPMHPAGMQ
notes: also called full-length IRF5 (One-Strep bait); not shown: One-Strep tag
Consider B2, for which the binding entry with TRIM28 (human) [7] and in the assay with TRIM28 (human) [8] was “binds” throughout.
